Experimental data: PubChem BioAssay AID686937 (Drosophila RNAi Screening Center, 2013)
The screen tested about 23,000 reagents; below is an unselected part of those that have a named target and a result. 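Reduced-secretion tags in replicate 1 do not always agree with the z-scores; no criterion for assigning the tags was given.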 Names joined by + are all predicted targets of the reagent. Not stated in the record: the amount of reagent.

Screen: 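Knock-downs that reduce output of a secreted reporter enzyme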 (primary screen)
Cell system: Drosophila S2 cells expressing secreted horseradish peroxidase
Knock-down reagent: long dsRNA against Drosophila genes
Time to read-out: about 5.5 days (5 days dsRNA, then 12 h reporter induction)
Conditions: reporter expression induced after 5 days of dsRNA, read 12 h later; inducer not stated
Measured: 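Chemiluminescent measurement of peroxidase in the medium 12 h after reporter induction, following 5 days of dsRNA, given as a z-score per plate; higher means more secretion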
Reading the numbers: z-score: higher = more reporter secreted into medium

| Gene | amplicon | z-score, replicate 1 | z-score, replicate 2 | z-score, replicate 3 | z-score, replicate 4 | phenotype, replicate 1 |
| --- | --- | --- | --- | --- | --- | --- |
| CG18789 (GeneID 317813) | DRSC02696 | 0.81 | 0.69 | – | – | – |
| eIF2D (GeneID 64874) | DRSC13916 | -0.11 | -0.92 | – | – | – |
| obst-G (GeneID 39355) | DRSC11103 | 0.07 | 0.08 | – | – | – |
| ng2 (GeneID 31298) | DRSC18803 | 0.13 | -0.02 | – | – | – |
| CG31820 (GeneID 318961) | DRSC21318 | 0.86 | 1.23 | – | – | – |
| CG14982 (GeneID 38464) | DRSC08440 | -3.15 | -3.32 | – | – | reduced secretion |
| CG42361 (GeneID 37936) | DRSC04391 | 0.21 | 0.09 | – | – | – |
| CheA75a (GeneID 40011) | DRSC10807 | 0.39 | 0.35 | – | – | – |
| CG7841 (GeneID 39672) | DRSC10922 | 0.31 | 0.09 | – | – | – |
| Ahcy (GeneID 32471) | DRSC19329 | 0.17 | 0.26 | – | – | – |
| DIP-theta (GeneID 33795) | DRSC00885 | 0.55 | 0.23 | 0.27 | 0.29 | – |
| DIP-theta (GeneID 33795) | DRSC02340 | 0.68 | 0.5 | – | – | – |
| DIP-theta (GeneID 33795) | DRSC02341 | 0.23 | 0.46 | – | – | – |
| Wnt6 (GeneID 34010) | DRSC02795 | 0.51 | 0.47 | – | – | – |
| RpL36 (GeneID 31009) | DRSC18708 | -2.22 | -3.77 | – | – | reduced secretion |
| CG13398 (GeneID 34169) | DRSC02268 | 0.42 | 0.11 | – | – | – |
| beag (GeneID 41091) | DRSC15296 | 0.16 | 0.34 | – | – | – |
| Sr-CII (GeneID 44219) | DRSC07557 | -0.01 | 0.17 | – | – | – |
| Nup153 (GeneID 32630) | DRSC19904 | -4.57 | 0.23 | -0.19 | -3.91 | reduced secretion |
| CG10550 (GeneID 43061) | DRSC14251 | 0.55 | 0.46 | – | – | – |
| Zip42C.1 (GeneID 35579) | DRSC05003 | -0.01 | 0.28 | – | – | – |
| epsilonCOP (GeneID 33908) | DRSC02003 | 0.07 | 0 | – | – | – |
| Cpr73D (GeneID 39897) | DRSC11084 | 0.33 | 0.48 | – | – | – |
| Ntl (GeneID 34046) | DRSC03003 | 0.76 | 0.44 | – | – | – |
| Bace (GeneID 34182) | DRSC02197 | 0.86 | 0.13 | – | – | – |
| dpr16 (GeneID 40619) | DRSC12217 | 0.38 | 0.47 | – | – | – |
| dpr16 (GeneID 40619) | DRSC12249 | -0.49 | -0.69 | – | – | – |
| LeuRS-m (GeneID 38581) | DRSC08595 | 0.52 | 0.51 | – | – | – |
| CG9498 (GeneID 33885) | DRSC03235 | 0.39 | 0.26 | – | – | – |
| Chro (GeneID 40508) | DRSC11630 | -0.53 | 0.27 | – | – | – |
| ix (GeneID 45881) | DRSC06325 | 0.2 | 0.25 | – | – | – |
| Jupiter (GeneID 41392) | DRSC15204 | -0.02 | 0.04 | – | – | – |
| Jupiter (GeneID 41392) | DRSC15205 | 0.14 | 0.44 | – | – | – |
| Jupiter (GeneID 41392) | DRSC15389 | 0.24 | 0.06 | – | – | – |
| alpha-Catr (GeneID 49713) | DRSC04669 | -0.12 | 0 | – | – | – |
| TwdlO (GeneID 43204) | DRSC16043 | 0.41 | 0.5 | – | – | – |
| Thor (GeneID 33569) | DRSC00770 | 0.24 | 0.39 | – | – | – |
| Sec63 (GeneID 38819) | DRSC11002 | -0.39 | 0.14 | 0.13 | -0.08 | – |
| CG4611 (GeneID 38601) | DRSC10434 | 0.24 | 0.01 | – | – | – |
| lab (GeneID 40817) | DRSC12627 | 0.29 | 0.46 | – | – | – |
| U2A (GeneID 35713) | DRSC06445 | -1.49 | -0.93 | – | – | – |
| CG13538 (GeneID 37667) | DRSC04180 | 0.09 | 0.31 | – | – | – |
| CG33272 (GeneID 2768958) | DRSC09116 | -2.05 | -2.73 | – | – | reduced secretion |
| Tsp29Fb (GeneID 34212) | DRSC03233 | 0.47 | 0.38 | – | – | – |
| sw + Sdic4 + Sdic3 + 2 more | DRSC20696 | -0.1 | 0.31 | – | – | – |
| fws (GeneID 35054) | DRSC02969 | -0.08 | -0.02 | – | – | – |
| CG4511 (GeneID 41305) | DRSC15589 | 0.08 | 0.1 | – | – | – |
| mRpL23 (GeneID 38302) | DRSC08307 | -0.39 | 0.12 | – | – | – |
| CG14837 (GeneID 38849) | DRSC10207 | 0.31 | 0.15 | – | – | – |
| dos (GeneID 38321) | DRSC07992 | -2.74 | -1.53 | – | – | reduced secretion |
| dos (GeneID 38321) | DRSC08713 | -0.21 | 0.13 | – | – | – |
| vari (GeneID 35343) | DRSC03202 | 0.21 | 0.25 | – | – | – |
| RpLP0 (GeneID 40451) | DRSC11878 | -3.34 | -1.73 | – | – | reduced secretion |
| RpLP0 (GeneID 40451) | DRSC22110 | -1.21 | -3.58 | – | – | reduced secretion |
| Xpc (GeneID 36697) | DRSC07654 | 0.49 | 0.29 | – | – | – |
| CG17030 (GeneID 38591) | DRSC08503 | 0.26 | 0.31 | – | – | – |
| Alp13 (GeneID 41236) | DRSC15781 | 0.5 | 0.62 | – | – | – |
| tth (GeneID 32318) | DRSC19435 | 0.72 | 0.34 | – | – | – |
| Cp38 (GeneID 31788) | DRSC18453 | 0.38 | 0.58 | – | – | – |
| CG7332 (GeneID 32885) | DRSC20038 | 0.25 | 0.3 | – | – | – |
| CG43347 (GeneID 31991) | DRSC17982 | -0.52 | -0.92 | – | – | – |
| CG43347 (GeneID 31991) | DRSC18446 | -0.15 | 0.2 | 0.45 | 0.08 | reduced secretion |
| CG43347 (GeneID 31991) | DRSC22656 | -2.06 | -0.51 | – | – | reduced secretion |
| CG43347 (GeneID 31991) | DRSC22682 | -0.4 | -0.15 | – | – | – |
| CG18178 (GeneID 39138) | DRSC10302 | 0.34 | -0.02 | – | – | – |
| CG15533 (GeneID 43612) | DRSC15069 | 0.43 | 0.51 | – | – | – |
| CG4066 (GeneID 41493) | DRSC15541 | 0.5 | 0.96 | – | – | – |
| AMPdeam (GeneID 32352) | DRSC18996 | 0.25 | -1.57 | – | – | – |
| AMPdeam (GeneID 32352) | DRSC19366 | -0.86 | -0.29 | – | – | – |
| AMPdeam (GeneID 32352) | DRSC19368 | -2.19 | -1.54 | – | – | reduced secretion |
| AMPdeam (GeneID 32352) | DRSC19727 | 0.43 | 0.47 | – | – | – |
| Fer3 (GeneID 41411) | DRSC16133 | 0.34 | 0.07 | – | – | – |
| Pgant4 (GeneID 261610) | DRSC00717 | 0.22 | 0.33 | – | – | – |
| ex (GeneID 33218) | DRSC00817 | 0.19 | 0.47 | – | – | – |
| CG17029 (GeneID 39740) | DRSC10240 | 0.48 | 0.45 | – | – | – |
| VhaSFD (GeneID 34997) | DRSC03471 | 0.23 | 0.33 | – | – | – |
| CG11437 (GeneID 40470) | DRSC11659 | -0.05 | 0.06 | – | – | – |
| DopEcR (GeneID 38539) | DRSC08529 | 0.27 | 0.19 | – | – | – |
| subdued (GeneID 42340) | DRSC15137 | 0.31 | 0.18 | – | – | – |
| CG13081 (GeneID 35245) | DRSC02185 | 0.39 | 0.25 | – | – | – |
| CG13870 (GeneID 37308) | DRSC06429 | -0.73 | 0.16 | – | – | – |
| CG9636 (GeneID 40967) | DRSC16529 | 0.42 | 0.33 | – | – | – |
| bnk (GeneID 43687) | DRSC16912 | 0.38 | 0.4 | – | – | – |
| Galphaq (GeneID 36384) | DRSC07432 | 0.4 | 0.41 | – | – | – |
| CG13239 (GeneID 40503) | DRSC11694 | 0.24 | 0.23 | – | – | – |
| CG10887 (GeneID 42399) | DRSC14277 | 0.46 | 0.27 | -0.68 | 0.45 | – |
| CG13484 (GeneID 39560) | DRSC10026 | -0.29 | -0.1 | – | – | – |
| Sce (GeneID 43327) | DRSC16825 | 0.09 | -0.17 | – | – | – |
| DAAM (GeneID 31075) | DRSC18479 | -1.54 | -0.29 | – | – | – |
| CG18304 (GeneID 33969) | DRSC02664 | 0.07 | 0.19 | – | – | – |
| Prosbeta5R2 (GeneID 318924) | DRSC01617 | -0.55 | -0.13 | – | – | – |
| CG10211 (GeneID 35106) | DRSC02027 | -0.38 | 0.55 | – | – | – |
| Trx2 (GeneID 34281) | DRSC03622 | 0.31 | 0.18 | – | – | – |
| Mct1 (GeneID 31198) | DRSC18681 | 0.25 | 0.24 | – | – | – |
| Lipt2 (GeneID 40565) | DRSC12338 | 0.18 | 0.41 | 0.49 | 0.23 | – |
| Lipt2 (GeneID 40565) | DRSC22610 | -0.57 | -0.02 | – | – | – |
| prel (GeneID 35969) | DRSC07271 | 0.33 | 0.32 | – | – | – |
| Rrp6 (GeneID 41798) | DRSC16223 | -3.5 | -3.93 | – | – | reduced secretion |
| CG14374 (GeneID 50026) | DRSC14834 | 0.36 | 0.62 | – | – | – |
| RapGAP1 (GeneID 34032) | DRSC02293 | 0.19 | 0.45 | 0.1 | -0.02 | – |
| RapGAP1 (GeneID 34032) | DRSC02294 | 0.15 | 0.33 | – | – | – |
| RapGAP1 (GeneID 34032) | DRSC02295 | 0.3 | 0.23 | – | – | – |
| RapGAP1 (GeneID 34032) | DRSC03406 | 0.13 | 0.29 | – | – | – |
| Myd88 (GeneID 35956) | DRSC06815 | 0.05 | 0.28 | – | – | – |

Copied from the listing (14 entries):
| Gene | amplicon | z-score, replicate 1 | z-score, replicate 2 | z-score, replicate 3 | z-score, replicate 4 | phenotype, replicate 1 |
| --- | --- | --- | --- | --- | --- | --- |
| DAAM (GeneID 31075) | DRSC18479 | -1.54 | -0.29 | – | – | – |
| CG18304 (GeneID 33969) | DRSC02664 | 0.07 | 0.19 | – | – | – |
| Prosbeta5R2 (GeneID 318924) | DRSC01617 | -0.55 | -0.13 | – | – | – |
| CG10211 (GeneID 35106) | DRSC02027 | -0.38 | 0.55 | – | – | – |
| Trx2 (GeneID 34281) | DRSC03622 | 0.31 | 0.18 | – | – | – |
| Mct1 (GeneID 31198) | DRSC18681 | 0.25 | 0.24 | – | – | – |
| Lipt2 (GeneID 40565) | DRSC12338 | 0.18 | 0.41 | 0.49 | 0.23 | – |
| Lipt2 (GeneID 40565) | DRSC22610 | -0.57 | -0.02 | – | – | – |
| prel (GeneID 35969) | DRSC07271 | 0.33 | 0.32 | – | – | – |
| Rrp6 (GeneID 41798) | DRSC16223 | -3.5 | -3.93 | – | – | reduced secretion |
| CG14374 (GeneID 50026) | DRSC14834 | 0.36 | 0.62 | – | – | – |
| RapGAP1 (GeneID 34032) | DRSC02293 | 0.19 | 0.45 | 0.1 | -0.02 | – |
| RapGAP1 (GeneID 34032) | DRSC02294 | 0.15 | 0.33 | – | – | – |
| RapGAP1 (GeneID 34032) | DRSC02295 | 0.3 | 0.23 | – | – | – |
